Source: PubChem BioAssay AID624297 (National Center for Advancing Translational Sciences (NCATS), 2012)
Screen size: about 340,000 compounds; about 6,200 (1.8%) were called active. Inconclusive means that the source gave no clear call. Such entries were picked first, then a sample of the others. The call rests on the fitted dose curve; in most records, active means well fitted activation curve with a large enough effect; inconclusive means small, poorly fitted or top-dose-only effect; inactive means no such curve, though single readings can be large or run the other way. Potencies of inconclusive entries are doubtful fits and often do not repeat.

assay: A quantitative high throughput screen for small molecules that induce DNA re-replication in SW480 colon adenocarcinoma cells.; further: nearly all actives have a fitted effect of over 55% in size; on re-replication activation: % of control where 0% means no effect; settings: Hoechst DNA content imaging, 48 h; re-replication activation: at 46.1 µM (top of the series) unless noted
Method in brief: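 Per well, 250 cells were exposed to pinned compound for 48 hr. Nuclear DNA was visualised with Hoechst (40 min, 37 C) and total object intensity recorded by fluorescence scanning.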
Potency means the concentration at half of the fitted maximal effect.

Structure (SMILES)	Potency	re-replication activation
COc1ccc(/C=C/C(=O)Nc2ccc(C(N)=O)cc2)cc1OC	inconclusive: 0.731 µM [activator, partial curve, poor fit]	
CCOc1ccc(NC(=O)CN(C)C(=O)/C=C/c2ccc(S(=O)(=O)N3CCCCCC3)cc2)cc1OCC	inconclusive: 20.6 µM [activator, single point]	
CN1C[C@@H]2C[C@@H](C3=Cc4cc(Cl)ccc4OC3)N3CCC[C@@]23C1=O	inconclusive: 1.03 µM [activator, partial curve, poor fit]	
Cc1ccccc1-c1nc(S(=O)(=O)c2ccccc2)c(NCCCN2CCOCC2)o1		inactive: 5.5%
O=C(COc1ccccc1F)NCC(c1ccco1)N1CCCC1 (stereo not given)		inactive: -0.131%
CSc1ccccc1C(=O)Nc1ccc2c(c1)CCC2		inactive: -2.04%
Cc1nc(-c2ccc(S(=O)(=O)Nc3cc(F)ccc3F)cc2)co1	inconclusive: 6.31 µM [activator, partial curve, poor fit]	
CC(=O)c1ccc(NC(=O)CN2CCN(c3ccccc3)CC2)cc1	inconclusive: 3.66 µM [activator, single point]	
COc1cc(CNCCN2CCOCC2)ccc1OCc1ccc(Cl)cc1	inconclusive: 29.1 µM [activator, single point]	
CN1CCN(c2ccc(NC(=O)c3ccc(-c4ccccc4F)o3)cc2)CC1		inactive: 8.43%
CC(C)(Oc1ccc(Cl)cc1)C(=O)Nc1ccc(S(=O)(=O)Nc2ncccn2)cc1		inactive: -0.129%
COc1cccc(C2CC(=O)Nc3cc4c(cc32)OCCO4)c1OC(C)C (stereo not given)	inconclusive: 25.9 µM [activator, partial curve, poor fit]	
O=C1C=CC2C(c3ccc4c(c3)OCO4)CC1N2Cc1ccccc1 (stereo not given)		inactive: 3.61%
Cc1cccc(NC(=O)CCNC(=O)c2ccco2)c1	inconclusive: 6.51 µM [activator, single point]	
COc1ccc(-c2nn(-c3ccccc3)cc2C(=O)N(C)CC(=O)Nc2cccc(F)c2)cc1		inactive: -1.05%
COC(=O)CC1C(=O)NCCN1C(=O)CSc1nnnn1-c1ccc(Cl)cc1 (stereo not given)		inactive: -1.31%
Cc1ccc(N=c2oc3cc(O)ccc3cc2C(N)=O)cc1	active: 16.4 µM	
c1ccc2[nH]c(-c3nc4ccccc4[nH]3)nc2c1	inconclusive: 29.1 µM [activator, single point]	
c1ccc(CSC2=NNC(c3ccccn3)S2)cc1 (stereo not given)	inconclusive: 0.411 µM [activator, full curve]	
Cc1ccc(CNC(=O)C2CCCN(S(C)(=O)=O)C2)cc1 (stereo not given)	inconclusive: 29.1 µM [activator, partial curve, poor fit]	

Structural class, those above containing an aryl thioether with sulfur outside any ring
Structure (SMILES)	Potency	re-replication activation
CSc1ccccc1C(=O)Nc1ccc2c(c1)CCC2		inactive: -2.04%
COC(=O)CC1C(=O)NCCN1C(=O)CSc1nnnn1-c1ccc(Cl)cc1 (stereo not given)		inactive: -1.31%
